# Data from the supplement of paper PMC12067093, “Discovery and optimisation of a covalent ligand for TRIM25 and its application to targeted protein ubiquitination” (Chemical Science, 2025).
# Some of the results follow.
# Compound: Cc1cc(ccc1-c1ccccc1)C(=O)N1CCCN(CC1)C(=O)CCl [compound 10]
# Experiment: probe-labelled cysteine peptide fold change vs DMSO (competition) (log2 fold change); higher = less target engagement (more negative = stronger competition)
# Details: THP-1, incubation time: 4 h
# 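Note: competitive profiling in live THP-1 cells: cysteine peptides tagged with an iodoacetamide desthiobiotin (IA-DTB) probe, intensity after compound treatment relative to DMSO-treated cells.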
Target,probe-labelled cysteine peptide fold change (10 µM),probe-labelled cysteine peptide fold change (50 µM)
MOSPD2_Q8NHP6_471_TSEDICLQLSR (UniProt Q8NHP6),0.0382,-0.112
MNAT1_P51948_293_AASPQDLAGGYTSSLACHR (UniProt P51948),-0.136,-0.61
MLKL_Q8NB16_437_RQQEPLGEDCPSELR (UniProt Q8NB16),-0.131,0.119
MLH1_P40692_233_ELIEIGCEDK (UniProt P40692),-0.0665,0.279
MMS19_Q96T76_386_ACDSVTSNVLPLLLEQFHK (UniProt Q96T76),0.0585,0.095
MRPL44_Q9H9J2_276_QSGGTTALPLYFVGLYCDK (UniProt Q9H9J2),0.0161,-0.0942
MPI_P34949_309_FIDVPTLCEMLSYTPSSSK (UniProt P34949),0.0812,-0.142
MIF_P14174_57_ASVPDGFLSELTQQLAQATGKPPQYIAVHVVPDQLMAFGGSSEPCALCSLHSIGK (UniProt P14174),0.0281,0.0556
MKNK1_Q9BUB5_101_EVETLYQCQGNK (UniProt Q9BUB5),0.00543,0.169
MINDY2_Q8NBR6_79_SLPDSASPAGSPEVPGPCSSSAGLDLK (UniProt Q8NBR6),-0.334,-0.1
MRPL37_Q9BZE1_268_NHVLETFYPISPIIDLHECNIYDVK (UniProt Q9BZE1),-0.0744,-0.045
MRPL42_Q9Y6G3_45_STYSPLPDDYNCNVELALTSDGR (UniProt Q9Y6G3),0.0794,-0.1
MORC3_Q14149_717_QCHMFTDQIK (UniProt Q14149),0.0619,-0.0733

# As a working copy, some entries already given:
Target,probe-labelled cysteine peptide fold change (10 µM),probe-labelled cysteine peptide fold change (50 µM)
MMS19_Q96T76_386_ACDSVTSNVLPLLLEQFHK (UniProt Q96T76),0.0585,0.095
MRPL44_Q9H9J2_276_QSGGTTALPLYFVGLYCDK (UniProt Q9H9J2),0.0161,-0.0942
